Values of other authors in patent US20200000750A1, “Composition for Treating Acute and Chronic Pain” (priority 2018, published 2020).

Test system: acute attacks of gout
Details: literature; colchiceine at 5 to 8 mg orally

Compound: COc1cc2c(c(OC)c1OC)-c1ccc(SC)c(=O)cc1[C@@H](N)CC2 [desacetylthiocolchicine]
- anti-gout effect in acute attacks of gout: equivocal results
